The list shows a part of the results.
tested on: T1, CTL2-GFP (C. trachomatis L2/434/Bu, GFP-expressing); design: species or system HeLa; Intracellular C. trachomatis growth in HeLa cells, bulk GFP fluorescence relative to DMSO; conditions: bulk GFP, single well; 28.5 h, 10 µM; inhibitor
T1 construct: L2/434/Bu, GFP-expressing

Structure (SMILES) | % of control remaining
Cc1nc2n(n1)C1=CC(C)(C)CC(=O)C1=NN2 [CBK019050] | 148.472%
Cc1noc(C)c1NC(=O)c1nccc2ccccc12 [CBK200310] | 96.3321%
CN(C)/C=N/c1nc(=O)n([C@H]2CC(O)[C@@H](CO)O2)cc1/C=C/C(=O)NCCCCCCNC(=O)C(F)(F)F (stereo partly shown) [CBK201330] | 113.869%
Cc1ccc(-c2csc3ncnc(Cl)c23)cc1 [CBK287765] | 95.7968%
Cc1cc(C(C)(C)C)oc1C(=O)N1CCn2c(nnc2C2CC2)C1 [CBK283771] | 138.693%
Cc1c(C(=O)NCc2cc(C3CC3)[nH]n2)[nH]c2c(Cl)cccc12 [CBK282533] | 132.186%
O=C(Nc1ccccc1C(F)(F)F)N1CCN(c2ccccc2Cl)CC1 [CBK045081] | 120.363%
CCCN1C(=O)c2ccc(C(=O)Nc3cc(C(=O)O)cc(C(=O)O)c3)cc2C1=O [CBK266441] | 128.606%
COc1ccc(Cc2nc(C3CC3)n(CC(F)(F)F)n2)cc1 [CBK307686] | 117.015%
CSc1nc2n(n1)C(C)C1=C(CCCC1=O)N2 (stereo not shown) [CBK288169] | 101.892%
CCCCCOc1ccc(Nc2cc(-c3ccccc3N(C)C)ncn2)cc1 [CBK090890] | 81.4073%
CC(C)c1csc(NC(=O)CC2CCN(C(=O)CC3CCCCC3)CC2)n1 [CBK285963] | 126.233%
O=C(Nc1sc2c(c1C(=O)NCC1CCCO1)CCCC2)c1ccccc1[N+](=O)[O-] (stereo not shown) [CBK264608] | 120.729%
COc1ccc(-c2nc(C3CCNCC3)n3ccccc23)cc1 [CBK035971] | 141.833%
COc1ccc(N2CCN(c3cc(-c4cccc5ccccc45)ncn3)CC2)cc1OC [CBK091022] | 184.409%
Cc1ccc(C(=O)NCc2cccnc2)c(N2CCOCC2)n1 [CBK076400] | 147.661%
CCOC(=O)c1cn(CC)c2cc(N3CCOCC3)c(F)cc2c1=O [CBK307142] | 136.461%
CC(Sc1nc(-c2ccccc2F)n[nH]1)C(=O)N1CCNC1=O (stereo not shown) [CBK295594] | 142.567%
COc1ccc(Nc2n[nH]c3nc(C)cc(=O)n23)cc1 [CBK288117] | 125.904%
CN1CC[C@]2(c3ccc4c(c3)nnn4C)CC[C@@H](NC(=O)Nc3cc(F)cc(C(F)(F)F)c3)C[C@H]12 [CBK067800] | 119.928%
CSc1cccc(NC(=S)N2CCCCC2CCN2CCOCC2)c1 (stereo not shown) [CBK028765] | 96.4463%
C(=C\c1ccccc1)/CN1CCC(Cc2ccccc2)CC1 [CBK126384] | 140.973%
O=C(O)Cn1nnc(-c2ccc(C(=O)O)cc2)n1 [CBK267926] | 124.253%
O=C(Nc1ccc(F)cc1Cl)c1cnc2n(c1=O)CCS2 [CBK287382] | 139.539%
O=C(Nc1ccc([C@@H](O)[C@H]2COCC(=O)N2Cc2ccc(F)cc2)cc1)c1ccccc1 [CBK289061] | 120.623%

Entries from the list above with a Cl atom (four):
Structure (SMILES) | % of control remaining
Cc1ccc(-c2csc3ncnc(Cl)c23)cc1 [CBK287765] | 95.7968%
Cc1c(C(=O)NCc2cc(C3CC3)[nH]n2)[nH]c2c(Cl)cccc12 [CBK282533] | 132.186%
O=C(Nc1ccccc1C(F)(F)F)N1CCN(c2ccccc2Cl)CC1 [CBK045081] | 120.363%
O=C(Nc1ccc(F)cc1Cl)c1cnc2n(c1=O)CCS2 [CBK287382] | 139.539%

(list continues)

Structure (SMILES) | % of control remaining
Cc1ccccc1C(=O)NCCNC(=O)c1cccnc1 [CBK269222] | 131.784%
O=C(C1=C(O)C(=O)N(CCN2CCOCC2)C1c1ccco1)c1cccs1 (stereo not shown) [CBK264506] | 100%
COc1ccc([C@@]23CC[C@@H](NC(=O)Nc4ccc(F)c(F)c4)C[C@@H]2N(C)CC3)cc1O [CBK051630] | 94.1808%
CC(C)NCC(O)Cn1c2c(c3ccccc31)CCc1c-2cnn1-c1ccccc1 (stereo not shown) [CBK261107] | 42.4972%
O=C(NCc1cccs1)c1ccccc1Nc1cccc(C(F)(F)F)c1 [CBK149557] | 48.4053%
O=C(NCc1cccs1)C1CCCN1c1nc(O)cc(C(F)(F)F)n1 (stereo not shown) [CBK004299] | 103.902%
COC(=O)[C@@H]1Cc2ncn(C)c2CN1S(=O)(=O)c1ccc(C#N)cc1 [CBK288993] | 133.386%
Cn1cc(NC(=O)CCn2c(C(F)F)cc3cccnc32)cn1 [CBK284740] | 119.045%
Cn1c(SCC(=O)NCCCN2CCOCC2)nc2ccccc2c1=O [CBK287607] | 111.826%
O=C(CC1SC(NC2CCCCCC2)=NC1=O)NCc1c(F)cccc1Cl (stereo not shown) [CBK067656] | 120.482%
CCCC(=O)c1ccc(S(=O)(=O)N2CCCN(Cc3cccnc3N3CCOCC3)CC2)cc1 [CBK062900] | 132.08%
CC(Oc1ccccc1)c1nnc(SCC(=O)Nc2ccc(Br)cc2F)n1C (stereo not shown) [CBK266364] | 91.3265%
CCn1c(C)nnc1SCCNc1cc(C)nc2ccnn12 [CBK306607] | 70.4045%
CCN1CCN(C(=O)C2CCCCC2C(=O)O)CC1 (stereo not shown) [CBK270337] | 109.272%
c1ccc2c(c1)CCN2c1ncnc2c1nc1n2CCCCC1 [CBK291119] | 118.909%
COc1ccc(C(=O)C2=C(O)C(=O)N(CCN(C)C)C2c2cccc([N+](=O)[O-])c2)cc1Cl (stereo not shown) [CBK266474] | 158.996%
COc1ccc(Oc2ncnc3c2[nH]c2ccccc23)cc1 [CBK291254] | 140.311%
CCOC(=O)c1ccc(-n2sc3ccccc3c2=O)cc1 [CBK115552] | 88.5722%
O=c1[nH]c2ncc(-c3ccco3)nc2n1Cc1ccccn1 [CBK064349] | 117.423%
C[C@@H]1CN(C)CCN1c1nccnc1OCCOc1cccnc1OCCCCCN(C)C [CBK051566] | 122.156%
O=C1NC[C@@H](CCC(=O)N2CCCCC2)N2C[C@@H](NS(=O)(=O)c3ccccc3)C[C@@H]12 [CBK289012] | 142.446%
OC(COCc1ccc2c(c1)OCO2)CN1CCN(c2ccccn2)CC1 (stereo not shown) [CBK278246C] | 114.609%
Cn1c(=O)n(C)c2cc(CNC(=O)C3NCCc4[nH]cnc43)ccc21 (stereo not shown) [CBK307274] | 99.9153%
N#CC(C(N)=O)C(c1ccc(Br)cc1)c1c(-c2ccccc2)nn(-c2nc(-c3ccccc3)cs2)c1O (stereo not shown) [CBK262697] | 87.0091%

— paper PMC12040169 (PLOS Biology, 2025)
